These are yes or no findings as the source states them, for the method shown. Binding seen in cells or lysates may run through a third protein. A yes stands for co-enrichment or nearness to the bait. Other partners may have been found. Where a sequence is shown, tags or fusion partners need not be part of it.

The chains behind the UniProt entries cited, without tags or fusion partners.
UniProt P28340: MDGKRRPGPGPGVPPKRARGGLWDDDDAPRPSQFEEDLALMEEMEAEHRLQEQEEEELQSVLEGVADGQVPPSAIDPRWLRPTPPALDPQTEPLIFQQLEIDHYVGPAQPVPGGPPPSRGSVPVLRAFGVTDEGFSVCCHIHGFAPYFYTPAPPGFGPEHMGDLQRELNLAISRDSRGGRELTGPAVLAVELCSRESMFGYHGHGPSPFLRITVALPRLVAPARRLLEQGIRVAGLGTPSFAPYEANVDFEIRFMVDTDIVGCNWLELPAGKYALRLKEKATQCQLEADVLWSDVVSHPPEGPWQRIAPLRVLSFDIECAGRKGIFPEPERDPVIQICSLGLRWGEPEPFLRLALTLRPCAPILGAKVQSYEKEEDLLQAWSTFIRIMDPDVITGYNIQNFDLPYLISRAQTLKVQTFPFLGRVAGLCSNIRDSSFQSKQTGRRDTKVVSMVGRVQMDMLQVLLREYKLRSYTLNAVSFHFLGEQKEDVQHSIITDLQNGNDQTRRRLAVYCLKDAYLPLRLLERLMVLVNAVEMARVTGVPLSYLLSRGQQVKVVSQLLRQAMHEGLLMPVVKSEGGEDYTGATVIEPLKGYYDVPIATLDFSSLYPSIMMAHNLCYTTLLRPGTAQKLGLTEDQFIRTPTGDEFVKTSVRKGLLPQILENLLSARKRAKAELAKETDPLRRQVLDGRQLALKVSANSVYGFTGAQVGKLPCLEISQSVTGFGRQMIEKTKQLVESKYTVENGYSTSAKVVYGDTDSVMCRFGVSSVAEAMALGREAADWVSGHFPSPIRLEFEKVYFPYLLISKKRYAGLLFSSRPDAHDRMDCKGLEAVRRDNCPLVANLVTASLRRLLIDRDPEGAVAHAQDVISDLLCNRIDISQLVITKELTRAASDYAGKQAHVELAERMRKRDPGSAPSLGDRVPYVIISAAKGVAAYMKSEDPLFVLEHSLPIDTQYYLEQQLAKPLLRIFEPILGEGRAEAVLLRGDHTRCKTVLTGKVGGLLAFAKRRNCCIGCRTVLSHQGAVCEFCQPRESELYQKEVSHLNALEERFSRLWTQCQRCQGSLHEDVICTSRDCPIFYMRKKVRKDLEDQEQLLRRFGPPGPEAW

For the assay, the target named is T1, 3HA-3FLAG-tagged NUBP2 (nucleotide-binding protein 2) (human) (UniProt Q9Y5Y2).
T1 sequence: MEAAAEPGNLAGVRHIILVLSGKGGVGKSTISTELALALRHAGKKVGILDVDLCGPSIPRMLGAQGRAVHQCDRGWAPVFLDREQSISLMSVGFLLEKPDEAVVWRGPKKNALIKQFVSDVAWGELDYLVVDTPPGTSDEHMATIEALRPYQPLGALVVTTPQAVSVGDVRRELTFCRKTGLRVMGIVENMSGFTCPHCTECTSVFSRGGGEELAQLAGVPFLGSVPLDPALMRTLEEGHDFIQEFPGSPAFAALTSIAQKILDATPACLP
Put plainly: affinity purification with mass spectrometry; anti-HA beads on lysates of Flp-In 293 cells expressing the 3HA-3FLAG-tagged bait (NUBP2, wildtype or mutant CIAO3); targeted proteomics assay (parallel reaction monitoring) of CIA components and substrates; CIAO3 purifications normalised to CIAO3; wildtype CIAO3 cells also treated with FAC or DFO for 8 h.

Consider POLD1 (from UniProt P28340 1-1107), for which the binding entry was “binds”.

The values above are taken from paper PMC9243173.
